Measurements taken from the supplement of paper PMC10849652.
This is one part of the list.

Amino acid sequences for entries named in this document (tags omitted). A change or cut given only in a name is not applied to a line headed by its entry.
UniProt Q712K3: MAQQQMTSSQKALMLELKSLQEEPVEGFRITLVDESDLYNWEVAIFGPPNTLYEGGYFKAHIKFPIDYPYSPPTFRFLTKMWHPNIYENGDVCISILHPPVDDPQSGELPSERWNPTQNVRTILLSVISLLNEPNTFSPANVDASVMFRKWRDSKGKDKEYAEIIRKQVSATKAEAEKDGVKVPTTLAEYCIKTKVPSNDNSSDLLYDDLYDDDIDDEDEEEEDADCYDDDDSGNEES
UniProt Q7Z7E8: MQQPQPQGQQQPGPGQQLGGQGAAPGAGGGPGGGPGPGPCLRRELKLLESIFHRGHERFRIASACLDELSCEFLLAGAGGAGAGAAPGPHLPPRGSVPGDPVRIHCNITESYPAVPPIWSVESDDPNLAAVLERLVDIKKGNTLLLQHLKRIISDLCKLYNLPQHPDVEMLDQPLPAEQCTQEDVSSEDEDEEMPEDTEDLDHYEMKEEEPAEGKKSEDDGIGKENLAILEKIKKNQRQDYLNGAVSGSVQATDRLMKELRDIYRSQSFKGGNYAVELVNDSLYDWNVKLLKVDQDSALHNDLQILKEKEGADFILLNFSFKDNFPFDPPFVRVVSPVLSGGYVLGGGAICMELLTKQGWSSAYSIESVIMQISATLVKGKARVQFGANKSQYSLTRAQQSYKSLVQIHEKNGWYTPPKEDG
UniProt P51965: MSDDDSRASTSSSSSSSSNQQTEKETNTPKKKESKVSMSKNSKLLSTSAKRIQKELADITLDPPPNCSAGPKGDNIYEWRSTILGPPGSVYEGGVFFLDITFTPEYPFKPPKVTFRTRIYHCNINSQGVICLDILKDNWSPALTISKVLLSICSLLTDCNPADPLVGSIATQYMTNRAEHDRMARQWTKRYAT
UniProt P15374: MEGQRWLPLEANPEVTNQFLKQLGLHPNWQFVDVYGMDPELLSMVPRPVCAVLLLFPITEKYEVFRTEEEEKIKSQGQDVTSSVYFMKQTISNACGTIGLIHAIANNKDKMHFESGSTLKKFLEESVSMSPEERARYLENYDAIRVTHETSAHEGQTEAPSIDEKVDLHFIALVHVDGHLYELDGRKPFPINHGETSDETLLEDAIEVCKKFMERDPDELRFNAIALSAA
UniProt P40222: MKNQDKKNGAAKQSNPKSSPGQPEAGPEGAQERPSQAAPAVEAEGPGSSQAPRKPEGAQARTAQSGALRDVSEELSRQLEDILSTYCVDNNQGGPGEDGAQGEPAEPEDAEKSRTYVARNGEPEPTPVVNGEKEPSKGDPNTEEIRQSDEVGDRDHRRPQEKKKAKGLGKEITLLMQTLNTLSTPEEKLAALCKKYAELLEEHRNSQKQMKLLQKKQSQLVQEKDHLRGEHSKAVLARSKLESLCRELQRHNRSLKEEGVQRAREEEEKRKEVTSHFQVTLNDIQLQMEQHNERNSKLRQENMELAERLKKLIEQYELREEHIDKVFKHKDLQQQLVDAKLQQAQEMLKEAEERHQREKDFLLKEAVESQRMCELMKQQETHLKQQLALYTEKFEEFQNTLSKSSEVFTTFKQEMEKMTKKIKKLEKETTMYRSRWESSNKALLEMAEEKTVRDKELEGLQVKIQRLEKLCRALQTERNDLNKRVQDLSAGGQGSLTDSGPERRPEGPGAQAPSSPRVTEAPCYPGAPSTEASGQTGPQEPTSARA
UniProt Q9BTX7: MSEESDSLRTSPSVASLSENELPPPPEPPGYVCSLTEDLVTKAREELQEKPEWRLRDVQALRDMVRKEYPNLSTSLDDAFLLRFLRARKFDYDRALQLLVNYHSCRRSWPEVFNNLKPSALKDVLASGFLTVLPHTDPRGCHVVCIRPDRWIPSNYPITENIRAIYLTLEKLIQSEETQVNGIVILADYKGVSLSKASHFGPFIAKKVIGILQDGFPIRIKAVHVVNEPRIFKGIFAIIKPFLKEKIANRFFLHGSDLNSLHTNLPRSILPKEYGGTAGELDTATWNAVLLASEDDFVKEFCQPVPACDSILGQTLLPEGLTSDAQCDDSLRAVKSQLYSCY
UniProt P63146, whole entry, looked up: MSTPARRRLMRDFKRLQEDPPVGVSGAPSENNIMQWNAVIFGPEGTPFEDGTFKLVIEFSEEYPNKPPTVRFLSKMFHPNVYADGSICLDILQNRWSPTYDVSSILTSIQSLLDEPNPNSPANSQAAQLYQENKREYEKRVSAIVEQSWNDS
UniProt O95155, whole entry, looked up: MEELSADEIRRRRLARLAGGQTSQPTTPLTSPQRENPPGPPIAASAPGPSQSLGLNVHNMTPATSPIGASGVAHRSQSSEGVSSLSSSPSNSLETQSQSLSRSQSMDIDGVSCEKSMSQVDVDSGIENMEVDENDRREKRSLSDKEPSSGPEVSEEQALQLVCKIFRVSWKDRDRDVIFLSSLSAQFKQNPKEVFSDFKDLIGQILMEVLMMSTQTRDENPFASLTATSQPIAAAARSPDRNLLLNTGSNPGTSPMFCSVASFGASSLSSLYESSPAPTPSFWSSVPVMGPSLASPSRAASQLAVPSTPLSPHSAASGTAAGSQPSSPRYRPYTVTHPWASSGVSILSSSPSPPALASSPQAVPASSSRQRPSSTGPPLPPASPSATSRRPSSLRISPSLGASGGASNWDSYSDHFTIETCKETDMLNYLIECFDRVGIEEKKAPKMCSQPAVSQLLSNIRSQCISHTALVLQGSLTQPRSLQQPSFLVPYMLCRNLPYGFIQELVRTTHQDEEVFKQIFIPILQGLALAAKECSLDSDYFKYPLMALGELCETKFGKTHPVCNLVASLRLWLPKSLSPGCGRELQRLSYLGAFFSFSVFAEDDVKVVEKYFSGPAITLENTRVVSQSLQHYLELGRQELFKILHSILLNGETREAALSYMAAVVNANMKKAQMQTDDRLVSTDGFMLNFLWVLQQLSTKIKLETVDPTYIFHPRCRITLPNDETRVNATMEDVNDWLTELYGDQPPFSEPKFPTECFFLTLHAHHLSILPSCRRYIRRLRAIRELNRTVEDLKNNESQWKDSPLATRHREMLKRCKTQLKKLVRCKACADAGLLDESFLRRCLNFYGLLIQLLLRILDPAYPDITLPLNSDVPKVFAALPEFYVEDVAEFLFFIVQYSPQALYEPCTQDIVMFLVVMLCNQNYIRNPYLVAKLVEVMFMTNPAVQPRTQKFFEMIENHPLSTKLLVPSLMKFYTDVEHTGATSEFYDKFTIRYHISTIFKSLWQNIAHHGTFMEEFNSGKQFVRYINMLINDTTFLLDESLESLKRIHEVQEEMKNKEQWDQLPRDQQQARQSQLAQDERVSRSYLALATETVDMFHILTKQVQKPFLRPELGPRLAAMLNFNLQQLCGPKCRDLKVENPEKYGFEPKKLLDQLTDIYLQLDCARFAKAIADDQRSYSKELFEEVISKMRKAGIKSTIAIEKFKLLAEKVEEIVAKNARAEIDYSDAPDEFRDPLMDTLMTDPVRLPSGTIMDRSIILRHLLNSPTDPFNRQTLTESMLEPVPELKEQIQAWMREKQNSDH
UniProt Q96CW5, whole entry, looked up: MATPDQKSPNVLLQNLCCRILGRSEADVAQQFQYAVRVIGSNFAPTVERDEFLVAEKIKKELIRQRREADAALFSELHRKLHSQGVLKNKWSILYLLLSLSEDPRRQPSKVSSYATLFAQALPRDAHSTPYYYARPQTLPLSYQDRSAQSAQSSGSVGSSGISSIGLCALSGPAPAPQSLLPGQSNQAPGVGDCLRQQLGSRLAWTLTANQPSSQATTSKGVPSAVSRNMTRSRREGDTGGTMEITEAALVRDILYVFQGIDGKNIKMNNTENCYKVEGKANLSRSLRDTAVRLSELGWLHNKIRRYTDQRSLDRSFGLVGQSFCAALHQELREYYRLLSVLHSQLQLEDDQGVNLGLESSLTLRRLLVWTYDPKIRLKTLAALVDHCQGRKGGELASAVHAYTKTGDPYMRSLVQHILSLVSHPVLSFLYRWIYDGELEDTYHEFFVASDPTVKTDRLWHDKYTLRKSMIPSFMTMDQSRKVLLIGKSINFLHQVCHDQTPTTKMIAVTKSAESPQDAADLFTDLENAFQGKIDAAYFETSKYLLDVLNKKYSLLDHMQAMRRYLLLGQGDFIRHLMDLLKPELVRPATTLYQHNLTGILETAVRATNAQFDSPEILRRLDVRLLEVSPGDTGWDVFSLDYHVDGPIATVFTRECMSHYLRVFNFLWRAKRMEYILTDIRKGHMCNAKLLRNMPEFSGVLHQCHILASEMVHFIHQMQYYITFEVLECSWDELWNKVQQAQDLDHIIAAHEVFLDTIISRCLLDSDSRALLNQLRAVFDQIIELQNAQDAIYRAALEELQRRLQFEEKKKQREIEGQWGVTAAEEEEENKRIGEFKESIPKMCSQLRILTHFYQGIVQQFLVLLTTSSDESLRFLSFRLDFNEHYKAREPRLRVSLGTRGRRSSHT
UniProt P07437, whole entry, looked up: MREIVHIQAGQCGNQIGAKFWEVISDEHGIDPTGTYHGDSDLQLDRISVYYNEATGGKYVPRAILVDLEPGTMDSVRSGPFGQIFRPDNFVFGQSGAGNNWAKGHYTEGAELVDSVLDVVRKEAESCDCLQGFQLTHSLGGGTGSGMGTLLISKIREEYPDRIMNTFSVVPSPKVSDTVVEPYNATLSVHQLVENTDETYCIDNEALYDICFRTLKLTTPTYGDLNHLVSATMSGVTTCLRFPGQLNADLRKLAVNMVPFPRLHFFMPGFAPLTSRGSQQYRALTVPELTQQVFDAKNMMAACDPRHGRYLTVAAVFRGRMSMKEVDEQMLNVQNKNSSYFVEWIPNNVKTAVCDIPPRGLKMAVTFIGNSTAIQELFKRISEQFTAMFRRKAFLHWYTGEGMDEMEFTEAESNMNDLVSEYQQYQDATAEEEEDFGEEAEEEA
UniProt Q04323: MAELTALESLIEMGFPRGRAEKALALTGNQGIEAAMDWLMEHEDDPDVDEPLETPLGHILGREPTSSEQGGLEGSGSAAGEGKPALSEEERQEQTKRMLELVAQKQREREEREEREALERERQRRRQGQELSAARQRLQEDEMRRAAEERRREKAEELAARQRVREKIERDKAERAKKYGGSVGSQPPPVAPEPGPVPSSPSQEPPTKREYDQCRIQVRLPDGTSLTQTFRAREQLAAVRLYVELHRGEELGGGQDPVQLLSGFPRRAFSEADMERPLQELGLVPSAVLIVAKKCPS
UniProt O14562: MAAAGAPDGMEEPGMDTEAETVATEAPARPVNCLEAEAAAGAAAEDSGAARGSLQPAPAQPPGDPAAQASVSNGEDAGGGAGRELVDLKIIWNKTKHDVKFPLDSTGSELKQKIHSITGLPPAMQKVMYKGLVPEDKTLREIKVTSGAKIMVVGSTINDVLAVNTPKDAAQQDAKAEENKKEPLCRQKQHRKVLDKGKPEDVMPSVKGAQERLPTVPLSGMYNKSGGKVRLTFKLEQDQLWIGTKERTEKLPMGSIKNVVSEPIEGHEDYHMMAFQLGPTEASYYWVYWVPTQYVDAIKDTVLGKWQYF
UniProt Q13509, whole entry, looked up: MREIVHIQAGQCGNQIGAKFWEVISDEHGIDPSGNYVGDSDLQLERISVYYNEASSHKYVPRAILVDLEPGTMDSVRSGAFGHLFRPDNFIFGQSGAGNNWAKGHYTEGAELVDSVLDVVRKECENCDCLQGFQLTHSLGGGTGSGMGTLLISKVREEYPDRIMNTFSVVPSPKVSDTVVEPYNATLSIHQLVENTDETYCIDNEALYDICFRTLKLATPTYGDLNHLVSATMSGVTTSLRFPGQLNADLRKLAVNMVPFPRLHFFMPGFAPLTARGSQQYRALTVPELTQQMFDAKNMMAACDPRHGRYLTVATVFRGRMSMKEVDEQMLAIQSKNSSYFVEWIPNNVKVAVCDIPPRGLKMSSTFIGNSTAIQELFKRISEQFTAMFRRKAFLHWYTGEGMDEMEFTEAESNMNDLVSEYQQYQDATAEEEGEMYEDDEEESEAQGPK
UniProt P0CG48, whole entry, looked up: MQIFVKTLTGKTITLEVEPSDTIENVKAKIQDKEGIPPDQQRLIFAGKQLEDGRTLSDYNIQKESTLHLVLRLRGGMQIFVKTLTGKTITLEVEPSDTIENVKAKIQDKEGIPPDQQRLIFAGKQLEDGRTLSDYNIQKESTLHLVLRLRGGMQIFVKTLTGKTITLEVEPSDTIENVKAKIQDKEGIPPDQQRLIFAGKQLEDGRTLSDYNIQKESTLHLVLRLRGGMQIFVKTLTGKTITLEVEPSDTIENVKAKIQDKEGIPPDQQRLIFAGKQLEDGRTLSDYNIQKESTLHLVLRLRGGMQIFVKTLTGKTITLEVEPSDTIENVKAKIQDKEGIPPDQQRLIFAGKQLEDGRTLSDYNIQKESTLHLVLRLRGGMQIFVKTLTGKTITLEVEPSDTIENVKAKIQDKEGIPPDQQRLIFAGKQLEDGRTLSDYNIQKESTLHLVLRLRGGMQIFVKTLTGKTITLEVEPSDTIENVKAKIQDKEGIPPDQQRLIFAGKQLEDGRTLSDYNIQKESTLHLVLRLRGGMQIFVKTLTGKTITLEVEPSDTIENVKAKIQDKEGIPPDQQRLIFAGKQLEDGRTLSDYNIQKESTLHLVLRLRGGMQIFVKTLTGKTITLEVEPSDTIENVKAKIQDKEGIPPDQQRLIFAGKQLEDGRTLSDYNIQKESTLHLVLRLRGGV

compound: CCCS(=O)(=O)Nc1ccc(F)c(C(=O)c2c[nH]c3ncc(-c4ccc(Cl)cc4)cc23)c1F [vemurafenib]; test: log2 fold change, soluble protein after heating vs DMSO (PISA); higher = thermal stabilisation; K562 lysate, 10 uM; active = over 0.2 and 3.5 SD of the protein, either way, in both replicates (recomputed)
Outline: (§1)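 Dounce homogenisation of K562 pellets in PBS pH 7.4 with 1 mM MgCl2 produced a crude extract, used at 1 mg/mL protein. Exposure to 10 μM compound lasted 30 min, and aliquots were then heated for 3 min across 48°C-58°C, pooled and brought to 0.5% NP-40 at 4°C. The supernatant after 21,000xg for 90 min was quantified by TMTpro 16plex LC-MS/MS with channel sums equalised. Duplicate values are given as log-two fold change in thermal stability relative to solvent controls.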

log2 fold change, inactive:
TXN2 (UniProt Q99757) 0.034
TWISTNB (UniProt Q3B726) 0.079
UBE2L3 isoform 3 (UniProt P68036) 0.04
UBE2R2 (UniProt Q712K3) 0.035
TXNL4A (UniProt P83876) -0.009
TXNRD1 (UniProt Q16881) 0.033
UBE2Q1 (UniProt Q7Z7E8) 0
TUBG1 (UniProt P23258) -0.021
UBE2E1 (UniProt P51965) -0.013
UCHL3 (UniProt P15374) -0.033
TUBB1 (UniProt Q9H4B7) -0.039
UBE2I (UniProt P63279) -0.03
TXLNA (UniProt P40222) -0.008
TTN isoform 12 (UniProt Q8WZ42) 0.117
UBR2 isoform 4 (UniProt Q8IWV8) -0.025
TUBGCP2 isoform 4 (UniProt Q9BSJ2) 0.02
TXNRD2 (UniProt Q9NNW7) -0.004
UAP1L1 (UniProt Q3KQV9) -0.15
TUT4 (UniProt Q5TAX3) 0.091
UCHL5 isoform 3 (UniProt Q9Y5K5) 0.013
TTPAL (UniProt Q9BTX7) 0.017
UBE2B (UniProt P63146) -0.008
UBE4B isoform 4 (UniProt O95155) 0.022
TUBGCP3 (UniProt Q96CW5) -0.013
TUBB (UniProt P07437) 0.018
UBE2V2 (UniProt Q15819) -0.017
UBXN1 (UniProt Q04323) 0.005
UBFD1 (UniProt O14562) 0.022
UBE2D1 (UniProt P51668) -0.013
UBQLN2 (UniProt Q9UHD9) -0.01
TUFM (UniProt P49411) 0.021
U2AF1 isoform 2 (UniProt Q01081) 0.007
TUBB3 (UniProt Q13509) -0.004
UBE2E3 (UniProt Q969T4) 0.106
UBC (UniProt P0CG48) -0.01

compound: CCCS(=O)(=O)Nc1ccc(F)c(C(=O)c2c[nH]c3ncc(Cl)cc23)c1F; test: as above
Outline: as §1

log2 fold change, inactive:
TXN2 (UniProt Q99757) -0.05
TWISTNB (UniProt Q3B726) 0.077
UBE2L3 isoform 3 (UniProt P68036) -0.022
UBE2R2 (UniProt Q712K3) -0.035
TXNL4A (UniProt P83876) 0.008
TXNRD1 (UniProt Q16881) 0.003
UBE2Q1 (UniProt Q7Z7E8) 0.03
TUBG1 (UniProt P23258) 0.024
UBE2E1 (UniProt P51965) -0.054
UCHL3 (UniProt P15374) -0.016
TUBB1 (UniProt Q9H4B7) 0.011
UBE2I (UniProt P63279) -0.007
TXLNA (UniProt P40222) -0.01
TTN isoform 12 (UniProt Q8WZ42) 0.057
UBR2 isoform 4 (UniProt Q8IWV8) 0.016
TUBGCP2 isoform 4 (UniProt Q9BSJ2) 0.01
TXNRD2 (UniProt Q9NNW7) 0.036
UAP1L1 (UniProt Q3KQV9) -0.014
TUT4 (UniProt Q5TAX3) -0.007
UCHL5 isoform 3 (UniProt Q9Y5K5) 0.016
TTPAL (UniProt Q9BTX7) 0
UBE2B (UniProt P63146) 0.013
UBE4B isoform 4 (UniProt O95155) 0.009
TUBGCP3 (UniProt Q96CW5) 0.026
TUBB (UniProt P07437) 0.003
UBE2V2 (UniProt Q15819) 0.002
UBXN1 (UniProt Q04323) 0.018
UBFD1 (UniProt O14562) 0.004
UBE2D1 (UniProt P51668) 0.022
UBQLN2 (UniProt Q9UHD9) 0.004
TUFM (UniProt P49411) 0.027
U2AF1 isoform 2 (UniProt Q01081) 0.062
TUBB3 (UniProt Q13509) 0.018
UBE2E3 (UniProt Q969T4) -0.05
UBC (UniProt P0CG48) -0.018
